# Library screen at single concentrations

Protein sequences, listed by entry. Tags and fused reporters are not part of them. Residues count along the entry.
UniProt Q4DA54, 1-478: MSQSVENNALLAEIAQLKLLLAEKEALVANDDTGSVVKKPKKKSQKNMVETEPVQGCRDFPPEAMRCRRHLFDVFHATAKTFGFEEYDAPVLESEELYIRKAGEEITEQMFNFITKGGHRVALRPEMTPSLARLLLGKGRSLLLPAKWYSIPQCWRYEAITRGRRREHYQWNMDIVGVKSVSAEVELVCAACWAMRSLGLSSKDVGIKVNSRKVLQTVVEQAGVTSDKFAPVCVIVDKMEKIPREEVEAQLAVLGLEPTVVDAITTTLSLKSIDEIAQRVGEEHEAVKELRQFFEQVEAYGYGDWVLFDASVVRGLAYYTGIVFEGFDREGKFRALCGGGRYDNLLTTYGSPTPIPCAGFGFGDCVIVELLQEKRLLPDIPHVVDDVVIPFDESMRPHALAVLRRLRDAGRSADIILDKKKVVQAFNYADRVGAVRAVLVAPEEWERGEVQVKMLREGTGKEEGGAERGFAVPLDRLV
UniProt P9WPC5, whole entry: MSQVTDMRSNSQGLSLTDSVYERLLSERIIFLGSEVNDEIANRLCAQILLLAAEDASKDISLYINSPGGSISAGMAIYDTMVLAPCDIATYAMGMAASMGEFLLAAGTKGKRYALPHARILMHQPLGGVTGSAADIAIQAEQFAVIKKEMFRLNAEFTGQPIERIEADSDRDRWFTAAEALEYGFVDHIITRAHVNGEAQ
UniProt P9WPC3, whole entry partner: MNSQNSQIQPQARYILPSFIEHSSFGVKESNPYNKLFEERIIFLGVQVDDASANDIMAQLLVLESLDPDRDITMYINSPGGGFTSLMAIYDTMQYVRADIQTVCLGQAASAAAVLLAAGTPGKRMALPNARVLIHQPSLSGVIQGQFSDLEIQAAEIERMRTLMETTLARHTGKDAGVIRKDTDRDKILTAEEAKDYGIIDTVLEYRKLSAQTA

Each number is a percent effect as filed.
How 0% and 100% were set is not recorded. Most values in the screen are low, and negative values occur.
This is an unselected part of the compounds tested.

TcHisRS: 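Enzyme assay of histidyl-tRNA synthetase; the read-out is not stated. Target: Histidine-tRNA ligase, Trypanosoma cruzi CL Brener (UniProt Q4DA54). Concentration: 30 µM. Higher reads as stronger inhibition (inferred: compounds with an IC50 in retests scored well above the rest). About 69,000 compounds were tested under these conditions; 0.045% (about 31) showed 50% or more at least once.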
ClpP1P2: 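Protease assay of ClpP1P2, read by the AMC dye that it sets free. Target: ClpP1P2, Mycobacterium tuberculosis (UniProt P9WPC5 and UniProt P9WPC3). Tested at 50 µM. Direction is inferred from only a few compounds that gave an IC50; most scored high, so higher reads as stronger inhibition. Most other retested compounds had strongly negative values. Of about 69,000 compounds tested this way, about 10 (0.015%) reached 50% or more in at least one test.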

{"structure": "CCc1ccc(CN(CCN(C)C)Cc2ccc(C)s2)nc1", "TcHisRS": 3.933, "ClpP1P2": -13.59}
{"structure": "Cc1ccccc1-n1cnnc1SCC1CCCCO1", "stereo": "centres undefined", "TcHisRS": 0, "ClpP1P2": -3.592}
{"structure": "CCC(=O)NC1CCCN(C(=O)Nc2cc(-c3ccccc3)on2)C1", "stereo": "centres undefined", "TcHisRS": 0.5128, "ClpP1P2": -9.082}
{"structure": "Cc1cccc(CC2CCCN(C(=O)C3CCOCC3)C2)n1", "stereo": "centres undefined", "TcHisRS": 3.731, "ClpP1P2": 6.376}
{"structure": "COCC(=O)N1CCCC2(COCCN(CCN(C)C)C2)C1", "stereo": "centres undefined", "TcHisRS": 2.299, "ClpP1P2": 12.43}
{"structure": "CCc1oc2ccc(NS(C)(=O)=O)cc2c1C(=O)OC", "TcHisRS": 4.663, "ClpP1P2": 9.191}
{"structure": "CCS(=O)(=O)N1CCCC2(COCCN(c3ccccn3)C2)C1", "stereo": "centres undefined", "TcHisRS": 6.098, "ClpP1P2": -5.217}
{"structure": "CN(Cc1c(F)cccc1Cl)C(=O)Cn1cnc(C#N)n1", "TcHisRS": 7.182, "ClpP1P2": -7.158}
{"structure": "O=C(CN1CCN(C(=O)c2sccc2C2CC2)CC1)NC1CC1", "TcHisRS": -1.69, "ClpP1P2": 7.389}
{"structure": "CCn1ccc(NC(=O)CN2C(=O)CC(C)(C)c3ccccc32)n1", "TcHisRS": 9.901, "ClpP1P2": -5.251}
{"structure": "CCCNC(=O)c1ccc(S(=O)(=O)NC2(COC)CCCC2)cc1", "TcHisRS": 2.299, "ClpP1P2": 2.929}
{"structure": "CCN(Cc1ccncc1)C(=O)CCn1c(C)cc2ccccc21", "TcHisRS": 13.23, "ClpP1P2": -2.183}
{"structure": "COc1ccccc1CC(=O)NC(CC(=O)O)c1ccc(F)cc1", "stereo": "centres undefined", "TcHisRS": -0.578, "ClpP1P2": 10.48}
{"structure": "CCn1cc(N2Cc3nc(N4CCC(O)CC4)ncc3C2=O)cn1", "TcHisRS": 4.348, "ClpP1P2": -0.7082}
{"structure": "CNc1nc(CNC(=O)Nc2cccc(F)c2C)cs1", "TcHisRS": 3.422, "ClpP1P2": 8.4}
{"structure": "O=S(=O)(c1c(N2CCCCC2)ccc2nonc12)N1CCCCC1", "TcHisRS": -1.98, "ClpP1P2": 8.638}
{"structure": "O=C1Nc2ccccc2CN(CC2CCCC2)C12CCNC2", "stereo": "centres undefined", "TcHisRS": 13.61, "ClpP1P2": -5.961}
{"structure": "CCc1cnc(C)nc1N1CCN(C(N)=O)CC1", "TcHisRS": 1.149, "ClpP1P2": -0.7263}
{"structure": "Cc1ncsc1CN1Cc2cn(C)nc2C(COCC2CC2)C1", "stereo": "centres undefined", "TcHisRS": 0.9852, "ClpP1P2": 2.143}
{"structure": "CC(C)(C)c1cc(C(=O)N2CCC(c3cnccn3)CC2)[nH]n1", "TcHisRS": -1.149, "ClpP1P2": -13.02}
{"structure": "CC(c1ccccc1)N(C)C(=O)Cn1cc(NC(=O)C(C)(C)C)cn1", "stereo": "centres undefined", "TcHisRS": 5, "ClpP1P2": -1.398}
{"structure": "O=C(c1[nH]nc(C2CC2)c1Cl)N1CCN(C2CC2)CC1", "TcHisRS": 7.792, "ClpP1P2": -0.04656}
{"structure": "O=C1CC(NCc2ccccn2)CN1CCc1ccc(F)cc1", "stereo": "centres undefined", "TcHisRS": 12, "ClpP1P2": -19.26}
{"structure": "O=C(Nc1ncn(CC(=O)N2CCCCCC2)n1)C1CCCO1", "stereo": "centres undefined", "TcHisRS": 1.141, "ClpP1P2": 1.559}
{"structure": "COCC1CN(C(=O)Cc2ccccn2)Cc2cn(CC3CC3)nc21", "stereo": "centres undefined", "TcHisRS": 12.4, "ClpP1P2": -2.669}
{"structure": "Fc1ccc(-c2cnc(CN3CCOC(Cn4cccn4)C3)o2)cc1", "stereo": "centres undefined", "TcHisRS": 6.34, "ClpP1P2": -16.33}
{"structure": "CC(=O)N1CCCC(C(=O)NCCc2ccc(F)c(Br)c2)C1", "stereo": "centres undefined", "TcHisRS": 4.478, "ClpP1P2": -0.7881}
{"structure": "Cc1ccc(CC(=O)N2CC[C@@H]3CN(CCN(C)C)CCO[C@@H]3C2)cc1", "TcHisRS": 6.077, "ClpP1P2": 6.002}
{"structure": "Cc1cc(C(=O)N2CCCC(c3nc(C)no3)C2)on1", "stereo": "centres undefined", "TcHisRS": -7.772, "ClpP1P2": 14.4}
{"structure": "Cc1nn(C)c2cnn(CCCNS(=O)(=O)Cc3ccccc3)c12", "TcHisRS": 6.696, "ClpP1P2": -8.012}
{"structure": "O=C(c1cccs1)N1CCc2c(nc(N3CCCCC3)[nH]c2=O)C1", "TcHisRS": 4.255, "ClpP1P2": -2.749}
{"structure": "CC(C)Cc1cc(C(=O)NC(C)C)[nH]n1", "TcHisRS": 8.543, "ClpP1P2": 2.889}
{"structure": "Cn1cc(C(=O)CC2CCCN2C(=O)c2cncc3ccccc23)cn1", "stereo": "centres undefined", "TcHisRS": 4.135, "ClpP1P2": -4.477}
{"structure": "Cc1ccccc1CN1CCN(C(=O)c2ccn(C(C)(C)C)c2)CC1", "TcHisRS": -11.88, "ClpP1P2": 12.96}
{"structure": "CN(C)c1ccc(C(=O)NCCCc2ccccn2)cn1", "TcHisRS": -3.933, "ClpP1P2": -10.24}
{"structure": "Cc1cc(C)n(CC2CCCCN2C(=O)c2ccsc2)n1", "stereo": "centres undefined", "TcHisRS": 8.475, "ClpP1P2": -8.92}
{"structure": "COc1ncccc1CN1CCc2[nH]nc(C(=O)N3CCCC3C)c2C1", "stereo": "centres undefined", "TcHisRS": 12.62, "ClpP1P2": -0.7846}
{"structure": "CC(C)(C)c1nc(CN2CCC(N3CCCCC3)CC2)no1", "TcHisRS": 5.155, "ClpP1P2": 1.013}
{"structure": "CC(C)N1CCN(S(=O)(=O)c2ncn(C)c2Cl)CC1", "TcHisRS": 2.956, "ClpP1P2": 9.706}
{"structure": "Cc1cccc(CN2CCc3nnc(CO)n3CC2)n1", "TcHisRS": 3.759, "ClpP1P2": 14.9}
{"structure": "COc1ccc(CN2CCCN(C(=O)C(C)n3ccnc3)CC2)cc1", "stereo": "centres undefined", "TcHisRS": 6.509, "ClpP1P2": -39.44}
{"structure": "COCC(=O)NC[C@H]1CC[C@H](c2nnc(-c3cccnc3)o2)CC1", "TcHisRS": 1.128, "ClpP1P2": -2.52}
{"structure": "COc1cc(N2CC[C@@H]3O[C@H](C(=O)NCC4CC4)C[C@@H]32)ncn1", "TcHisRS": 1.905, "ClpP1P2": -11.3}
{"structure": "Cn1cc(CN2CCCC23CCN(C(=O)c2cccs2)CC3)cn1", "TcHisRS": 2.479, "ClpP1P2": -10.16}
{"structure": "COc1cccc(C2CCCN2Cc2nc3c(cnn3C)c(=O)[nH]2)c1", "stereo": "centres undefined", "TcHisRS": 3.759, "ClpP1P2": -5.971}
{"structure": "Cc1cc(N2CCC(C(=O)O)(n3ccc(C(C)C)n3)CC2)nc(N)n1", "TcHisRS": 3.03, "ClpP1P2": -10.92}

6 of the entries, repeated:

| structure | TcHisRS | ClpP1P2 |
|---|---|---|
| `Cc1ncsc1CN1Cc2cn(C)nc2C(COCC2CC2)C1` (centres undefined) | 0.9852% | 2.143% |
| `CC(C)Cc1cc(C(=O)NC(C)C)[nH]n1` | 8.543% | 2.889% |
| `Cn1cc(C(=O)CC2CCCN2C(=O)c2cncc3ccccc23)cn1` (centres undefined) | 4.135% | -4.477% |
| `CC(=O)N1CCCC(C(=O)NCCc2ccc(F)c(Br)c2)C1` (centres undefined) | 4.478% | -0.7881% |
| `CC(C)N1CCN(S(=O)(=O)c2ncn(C)c2Cl)CC1` | 2.956% | 9.706% |
| `Cc1ccccc1-n1cnnc1SCC1CCCCO1` (centres undefined) | 0% | -3.592% |

Data taken from ChEMBL document CHEMBL3988442, “University of Dundee, Small-Polar-MMV Screening Library” (2021).